Experimental data published in PubChem BioAssay AID540276 (National Center for Advancing Translational Sciences (NCATS), 2011).
“And” between values parts separate entries of the source, which are not always exact repeats. Equal entries are not always repeated. About 5,400 (1.8%) of roughly 300,000 compounds were called active. Inconclusive results, whose numbers are uncertain, are shown with a selection of clear calls. Calls follow the shape of the full dose curve; tested in HEK293 cells. Potencies beside an inconclusive call are fits to weak or partial responses and may not hold up.

Assay: qHTS for inhibitors of binding or entry into cells for Marburg Virus
Conditions: Marburg virus pseudotyped entry inhibition, cell reporter; series mostly up to 37.8 µM
Potency is read from the fitted curve at half-maximal effect.

Row | SMILES | Potency
1 | CC(C)=CC(=O)OCC(=O)Nc1ccc(Cl)cc1 | inconclusive: 12.6 µM [inhibitor, single point]
2 | CCCOc1ccc(C(O)(CCC)CCN2CCCCC2)cc1 (stereo not given) | inactive
3 | Cc1cccc(C)c1OCC(C)N (stereo not given) | inconclusive: 12.6 µM [inhibitor, partial curve, poor fit]
4 | O=[N+]([O-])c1cccc(N/N=C/c2cc([N+](=O)[O-])ccc2O)c1 | inconclusive: 20 µM [inhibitor, single point]
5 | CCN(CC)S(=O)(=O)c1ccc(C)c(NC(=O)COC(=O)CN2C(=O)NC(C)(C)C2=O)c1 | inactive
6 | COC(=O)NNC(=O)COc1ccc(Cl)cc1 | inactive
7 | CCOC(=O)Cn1c(=NC(=O)C(C)C)sc2c(C)cc(C)cc21 | inactive
8 | CCn1c(SCc2ccc(F)cc2)nnc1C1CCN(S(=O)(=O)c2ccc(OC)cc2)CC1 | inconclusive: 4.61 µM [inhibitor, full curve, poor fit]
9 | CC(=O)O[C@H]1C[C@@H]2CCC3C(CC[C@@]4(C)[C@H]3C[C@H]([N+]3(C)CCCCC3)[C@@H]4OC(C)=O)[C@@]2(C)C[C@@H]1[N+]1(C)CCCCC1 (stereo not given in full) | inconclusive: 0.0282 µM [activator, full curve, poor fit]
10 | Cc1ccc2[nH]c(=O)c(CN(Cc3ccc4c(c3)OCO4)Cc3nnnn3Cc3ccco3)cc2c1 | inconclusive: 31.6 µM [inhibitor, partial curve, poor fit]
11 | COc1ccc(-c2nc(CN3C(=O)CN=C(c4ccccc4)c4ccccc43)c(C)o2)cc1 | inconclusive: 7.08 µM [inhibitor, full curve]
12 | O=C1OC(c2ccc(Cl)cc2)/C(=C(/O)c2ccccc2)C1=O (stereo not given) | inactive
13 | COc1ccc(CN(C)Cc2nc(Cc3cccc(F)c3)no2)c2cccnc12 | inconclusive: 7.94 µM [inhibitor, partial curve, poor fit]
14 | Cc1cnc(C(=O)N2CCN(S(=O)(=O)c3ccc4ccccc4c3)CC2)cn1 | inactive
15 | Cn1c(CNc2ccc(F)cc2)nc2ccccc21 | inactive
16 | CSc1nnc2c3cc(F)ccc3n(Cc3ccccc3)c2n1 | inactive
17 | O=C(c1c(F)cccc1F)N1CCCC(c2nc(-c3cccs3)no2)C1 (stereo not given) | inconclusive: 2 µM [activator, partial curve, poor fit]
18 | CC(Oc1ccc(Br)cc1)C(=O)NCCCN1CCCC1=O (stereo not given) | inactive
19 | C=CCN(C)CC/C=C1\c2ccccc2CSc2ccccc21 | inconclusive: 12.6 µM [inhibitor, partial curve, poor fit]
20 | N#Cc1ccc(OCC(=O)NCCN2CCOCC2)cc1 | inconclusive: 31.6 µM [activator, single point]
21 | O=C(CSc1nnc(CNC(=O)c2cccc(F)c2)n1-c1ccccc1)Nc1ccccc1F | inconclusive: 5.01 µM [inhibitor, single point]
22 | c1coc(-c2nc3ccccc3s2)c1 | inconclusive: 3.16 µM [activator, single point]
23 | Cc1ccc2[nH]c(-c3cccc(F)c3)cc(=O)c2c1 | inconclusive: 0.103 µM [inhibitor, full curve, poor fit]
24 | CCOc1cc(CNc2ccc(O)cc2)ccc1OCc1ccc(Cl)cc1Cl | inactive

Row | SMILES | Potency
25 | Cn1ncc(Br)c1C(=O)Nc1cccc(C(F)(F)F)c1 | inactive
26 | COc1cc(NC(=O)CN(c2ccc(C)cc2)S(=O)(=O)c2cccc3nonc23)cc(OC)c1 | inconclusive: 11.2 µM [inhibitor, partial curve, poor fit]
27 | CC(C)=C1CCC(C)CC1=NNC(N)=S (stereo not given) | inactive
28 | O=C(Nc1ccc2oc(-c3ccccc3F)nc2c1)c1cncc(Br)c1 | inactive
29 | CCc1ccc(NC(=O)CSc2nncn2-c2cccnc2)cc1 | inconclusive: 20 µM [activator, single point]
30 | O=c1c2cc3ccccc3n2cnn1Cc1ccccc1F | inconclusive: 0.0891 µM [inhibitor, full curve, poor fit]
31 | CN(Cc1c(F)cccc1Cl)C(=O)CCc1c[nH]c2ccccc12 | inactive
32 | Cc1cc(Nc2ccc3c(c2)OCCO3)c2cc(Cl)ccc2n1 | inactive
33 | CCOc1cc(C(=O)Nc2ccc(N3CCOCC3)cc2)cc(Br)c1OC | inconclusive: 5.62 µM [inhibitor, full curve, poor fit]
34 | Cc1cc(C)c2nc(-c3ccccn3)cc(C(=O)NCc3ccc(S(N)(=O)=O)cc3)c2c1 | active: 11.2 µM
35 | Cc1ccc(OCc2ccc(C(=O)Nc3nccs3)o2)cc1C | inconclusive: 10 µM [inhibitor, single point]
36 | COc1ccccc1N1CCN(CCCCN2C(=O)c3ccccc3C2=O)CC1 | inconclusive: 7.3 µM [activator, partial curve, poor fit]
37 | O=S(=O)(Nc1ccccc1)c1ccc(NS(=O)(=O)c2c(F)cccc2F)cc1 | inactive
38 | O=C(Cn1cc(S(=O)(=O)Cc2ccccc2)c2ccccc21)Nc1ccccc1 | inconclusive: 35.5 µM [inhibitor, single point]
39 | COc1ccc(NC(=O)Cn2c(SCc3cc(C)ccc3C)nc3ccncc32)c(OC)c1OC | inconclusive: 1.41 µM [inhibitor, partial curve, poor fit]
40 | O=C(NCc1ccccc1)c1ccc(NC(=O)c2ccco2)cc1 | inactive
42 | NC(=O)c1ccsc1NC(=O)CS(=O)(=O)c1ccc(F)cc1 | inconclusive: 11.2 µM [activator, single point]
43 | O=C(O)Cc1ccc(C(=O)c2ccccc2)s1 | inconclusive: 10 µM [activator, partial curve, poor fit]
44 | CC(Nc1ccc(Cl)cc1)c1cc(Cl)ccc1O (stereo not given) | inactive
45 | Cc1c(C(=O)NCCc2ccccc2)oc2ccc(S(=O)(=O)N3CCC4(CC3)OCCO4)cc12 | inconclusive: 11.6 µM [inhibitor, partial curve, poor fit]
46 | Cc1cc(=O)[nH]c(SCC(=O)Nc2ccc(Br)cc2)c1C#N | inactive
47 | O=S(=O)(c1ccc2ccccc2c1)N1CCN(C2Cc3ccccc3C2)CC1 | inconclusive: 3.16 µM [inhibitor, single point]
48 | Cc1cc(C)c(NC(=O)Cn2c(=O)n(-c3ccc(CC(=O)NCC4CCCO4)cc3)c(=O)c3ccccc32)c(C)c1 (stereo not given) | inconclusive: 2.51 µM [activator, partial curve, poor fit]

Copied from the list.
Entry of `COc1cc(NC(=O)CN(c2ccc(C)cc2)S(=O)(=O)c2cccc3nonc23)cc(OC)c1` under Potency: inconclusive: 11.2 µM [inhibitor, partial curve, poor fit]
Entry of `CN(Cc1c(F)cccc1Cl)C(=O)CCc1c[nH]c2ccccc12` under Potency: inactive
Entry of `CCc1ccc(NC(=O)CSc2nncn2-c2cccnc2)cc1` under Potency: inconclusive: 20 µM [activator, single point]
Entry of `Cn1ncc(Br)c1C(=O)Nc1cccc(C(F)(F)F)c1` under Potency: inactive
Entry of `COc1ccc(NC(=O)Cn2c(SCc3cc(C)ccc3C)nc3ccncc32)c(OC)c1OC` under Potency: inconclusive: 1.41 µM [inhibitor, partial curve, poor fit]
Entry of `O=C(NCc1ccccc1)c1ccc(NC(=O)c2ccco2)cc1` under Potency: inactive

Additional records.

Row | SMILES | Potency
49 | O=C(CSc1nnc2sc3ccccc3n12)c1ccco1 | inactive
50 | Cc1ccc(C)c(N2CCN(C(c3ccccc3)c3nnc(-c4ccccc4F)o3)CC2)c1 (stereo not given) | inactive
51 | O=C(NCC(c1ccco1)N1CCCC1)c1cn(Cc2ccccc2)nc1-c1ccccc1 (stereo not given) | inconclusive: 10 µM [inhibitor, partial curve]
52 | COc1cccc(OC)c1OC(=O)c1cnccn1 | inactive
53 | O=C1/C(=C/c2ccco2)CCC1C1CCCC1 (stereo not given) | inactive
54 | C[C@@H]1CC2CCC[C@@H]2[C@]2(O1)C(=O)Nc1cccc(Br)c12 (stereo not given in full) | inconclusive: 0.0017 µM [activator, full curve, poor fit]
55 | CCOc1ccccc1N1CC(C(=O)NNC(=O)c2cc(OC)c(OC)c(OC)c2)CC1=O (stereo not given) | inconclusive: 5.62 µM [activator, single point]
56 | Cc1cccc(N2CCN(S(=O)(=O)c3ccc(Cl)nc3)CC2C)c1 (stereo not given) | inconclusive: 12.6 µM [inhibitor, single point]
57 | COc1ccc2[nH]c3c(c2c1)CCN1C(=O)C(CC(=O)NC/C=C(\C)CCC=C(C)C)C[C@H](C(=O)N2CCOCC2)[C@@]31CCC1CCCC1 (stereo not given in full) | inactive
58 | CCc1nnc(SCCSc2nnc(CC)n2N)n1N | inactive
59 | CC(C)Oc1ccc(CCN)cc1Cl | inconclusive: 2.06 µM [activator, full curve, poor fit]
60 | O=C1NC(=Nc2ccc(Cl)cc2)/C(=C/c2ccco2)S1 | inconclusive: 1.58 µM [inhibitor, partial curve, poor fit]
61 | COc1ccc(C2c3ccc4ccccc4c3Oc3ncn(Cc4ccco4)c(=N)c32)cc1OC (stereo not given) | inconclusive: 7.08 µM [inhibitor, full curve, poor fit]
62 | Nc1nonc1C(=O)NCCNCc1cc(Br)ccc1OCc1ccc(F)cc1 | inactive and inconclusive: 16.4 µM [inhibitor, single point]
63 | CCCCN(CC)CCCNC(=O)C1CCN(c2ncnc3c2sc2cccc(F)c23)CC1 | inconclusive: 35.5 µM [inhibitor, single point]
64 | O=C(C(=O)N1CCCCC1)c1cn(CC(=O)N2CCCCCC2)c2ccccc12 | inconclusive: 17.8 µM [inhibitor, partial curve, poor fit]
65 | COC(=O)c1cc2c(C)nn(C)c2s1 | inconclusive: 3.16 µM [activator, single point]
66 | CN(C)c1ccc(C=C2SC(=S)NC2=O)cc1 | inconclusive: 0.501 µM [activator, partial curve, poor fit]
67 | Oc1ccc(NC(=S)Nc2ccccc2)cc1 | inconclusive: 0.92 µM [activator, partial curve, poor fit]
68 | CCn1nnc2cc(C(=O)N(CCOC)CC(=O)Nc3cccc(C)c3C)ccc21 | inconclusive: 5.62 µM [activator, single point]
69 | Brc1ccccc1OCCNCc1ccccc1 | inconclusive: 35.5 µM [inhibitor, single point]
70 | CCc1nc2ccccc2n1CCCCOc1ccc(C)cc1 | inconclusive: 10 µM [inhibitor, partial curve, poor fit]
